# From PubChem BioAssay
# Chains of the proteins cited; added tags and fusions are not shown.
# UniProt P42858, whole entry, looked up: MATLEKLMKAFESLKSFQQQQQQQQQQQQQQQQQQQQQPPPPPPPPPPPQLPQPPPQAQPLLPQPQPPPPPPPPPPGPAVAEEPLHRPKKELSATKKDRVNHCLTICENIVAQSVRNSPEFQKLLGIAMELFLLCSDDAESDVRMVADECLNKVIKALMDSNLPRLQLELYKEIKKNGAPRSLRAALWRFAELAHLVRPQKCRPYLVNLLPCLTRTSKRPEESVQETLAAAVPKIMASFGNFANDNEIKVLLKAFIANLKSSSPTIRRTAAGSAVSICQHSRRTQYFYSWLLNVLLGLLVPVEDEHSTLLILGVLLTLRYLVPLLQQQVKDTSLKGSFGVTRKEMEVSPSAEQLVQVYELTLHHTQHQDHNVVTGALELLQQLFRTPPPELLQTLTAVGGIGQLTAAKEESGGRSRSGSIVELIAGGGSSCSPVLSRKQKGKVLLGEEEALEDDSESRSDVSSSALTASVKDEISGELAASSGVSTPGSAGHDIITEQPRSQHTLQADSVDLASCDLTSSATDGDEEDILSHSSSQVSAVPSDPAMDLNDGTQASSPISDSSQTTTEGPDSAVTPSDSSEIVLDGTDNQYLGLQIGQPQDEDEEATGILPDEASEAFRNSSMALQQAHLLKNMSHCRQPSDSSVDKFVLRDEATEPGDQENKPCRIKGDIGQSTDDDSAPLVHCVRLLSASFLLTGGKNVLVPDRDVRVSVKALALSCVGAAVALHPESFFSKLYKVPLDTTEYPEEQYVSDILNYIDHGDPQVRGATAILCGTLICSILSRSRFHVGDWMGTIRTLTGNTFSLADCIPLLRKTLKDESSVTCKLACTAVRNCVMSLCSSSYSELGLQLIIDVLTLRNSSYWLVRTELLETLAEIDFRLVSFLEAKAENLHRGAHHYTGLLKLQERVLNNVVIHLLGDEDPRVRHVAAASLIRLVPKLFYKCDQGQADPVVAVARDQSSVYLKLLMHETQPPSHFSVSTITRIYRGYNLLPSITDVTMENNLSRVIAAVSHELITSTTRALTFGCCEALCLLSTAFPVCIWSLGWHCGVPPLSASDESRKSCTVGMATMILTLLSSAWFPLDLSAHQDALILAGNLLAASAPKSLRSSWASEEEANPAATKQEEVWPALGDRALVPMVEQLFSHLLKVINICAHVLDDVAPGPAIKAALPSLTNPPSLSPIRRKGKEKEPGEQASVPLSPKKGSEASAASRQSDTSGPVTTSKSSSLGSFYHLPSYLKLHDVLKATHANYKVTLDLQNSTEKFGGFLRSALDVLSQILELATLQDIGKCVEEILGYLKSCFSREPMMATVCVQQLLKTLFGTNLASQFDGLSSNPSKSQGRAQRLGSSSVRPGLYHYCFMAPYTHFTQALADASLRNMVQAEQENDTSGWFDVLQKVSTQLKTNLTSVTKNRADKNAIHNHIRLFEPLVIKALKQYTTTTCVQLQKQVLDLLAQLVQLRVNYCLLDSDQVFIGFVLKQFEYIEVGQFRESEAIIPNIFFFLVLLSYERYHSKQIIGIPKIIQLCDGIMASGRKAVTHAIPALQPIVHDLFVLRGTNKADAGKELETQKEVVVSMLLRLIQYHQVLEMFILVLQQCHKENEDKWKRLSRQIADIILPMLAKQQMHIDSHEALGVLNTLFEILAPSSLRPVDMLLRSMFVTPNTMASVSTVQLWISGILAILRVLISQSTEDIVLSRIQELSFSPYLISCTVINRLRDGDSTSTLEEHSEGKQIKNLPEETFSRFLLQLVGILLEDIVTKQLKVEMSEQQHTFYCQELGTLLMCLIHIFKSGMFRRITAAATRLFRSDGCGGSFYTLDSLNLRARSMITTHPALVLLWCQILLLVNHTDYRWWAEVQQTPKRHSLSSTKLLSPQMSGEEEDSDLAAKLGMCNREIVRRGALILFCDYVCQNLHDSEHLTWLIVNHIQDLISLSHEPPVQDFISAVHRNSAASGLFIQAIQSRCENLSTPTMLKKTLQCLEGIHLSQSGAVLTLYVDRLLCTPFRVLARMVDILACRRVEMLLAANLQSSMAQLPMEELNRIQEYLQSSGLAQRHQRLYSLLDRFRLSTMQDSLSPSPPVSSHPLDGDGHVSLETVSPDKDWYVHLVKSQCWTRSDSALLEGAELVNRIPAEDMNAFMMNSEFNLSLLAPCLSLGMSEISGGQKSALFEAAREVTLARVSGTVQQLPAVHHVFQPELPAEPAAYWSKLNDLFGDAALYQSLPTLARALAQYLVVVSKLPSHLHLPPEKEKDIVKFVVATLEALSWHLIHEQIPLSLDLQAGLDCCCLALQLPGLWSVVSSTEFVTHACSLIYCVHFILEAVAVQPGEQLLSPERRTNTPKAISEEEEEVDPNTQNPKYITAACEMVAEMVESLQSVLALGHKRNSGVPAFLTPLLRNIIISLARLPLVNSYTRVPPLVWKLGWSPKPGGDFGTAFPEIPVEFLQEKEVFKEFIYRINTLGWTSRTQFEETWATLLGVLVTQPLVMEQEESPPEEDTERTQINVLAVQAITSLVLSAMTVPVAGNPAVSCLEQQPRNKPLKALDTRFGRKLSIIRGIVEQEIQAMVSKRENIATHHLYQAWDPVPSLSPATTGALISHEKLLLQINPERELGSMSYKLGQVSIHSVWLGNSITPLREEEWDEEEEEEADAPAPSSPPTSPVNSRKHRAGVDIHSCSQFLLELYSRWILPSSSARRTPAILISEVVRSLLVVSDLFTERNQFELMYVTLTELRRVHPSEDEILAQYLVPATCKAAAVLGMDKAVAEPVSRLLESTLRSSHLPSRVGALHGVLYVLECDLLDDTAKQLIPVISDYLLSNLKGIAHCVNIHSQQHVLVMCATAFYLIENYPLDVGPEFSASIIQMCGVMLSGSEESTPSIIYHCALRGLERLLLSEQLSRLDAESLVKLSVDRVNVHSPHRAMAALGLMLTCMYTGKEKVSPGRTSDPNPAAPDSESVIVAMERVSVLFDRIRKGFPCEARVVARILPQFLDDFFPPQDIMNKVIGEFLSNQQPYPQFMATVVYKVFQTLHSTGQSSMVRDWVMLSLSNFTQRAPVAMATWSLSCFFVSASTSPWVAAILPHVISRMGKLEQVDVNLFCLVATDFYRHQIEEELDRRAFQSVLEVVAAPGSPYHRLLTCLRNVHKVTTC
# Some of the results follow. The main result of the screen is listed elsewhere. These columns were measured beside it and carry no call. For some of these results: The list favours compounds with an active or inconclusive main result.
# What was measured:
# [1] = biological target: Huntingtin (Homo sapiens) (UniProt P42858); assay: inhibitors of mutant Htt aggregation in vitro, dose response, QA1 (AID 1584); settings: in vitro mutant huntingtin aggregation assay; confirmation test; at 10 µM; stronger effect = lower value
# PubChem AID 1586 = settings: yeast two-hybrid polyglutamine protein interaction, reporter readout; measured here: averaged growth delta OD
# [2] = enhancers of SMN2 over SMN1 splicing, cell-based, SMN2/SMN1 luciferase reporters (AID 1598); settings: SMN2 vs SMN1 luciferase splicing reporter cells, at 10 µM; SMN1 luciferase ratio: measured here: SMN1 luciferase reporter average; SMN2 luciferase ratio: measured here: SMN2 luciferase reporter average, stronger effect = higher value
# [3] = protection against mutant huntingtin cytotoxicity, PC12 cells, LDH release (AID 1610); settings: PC12 mutant huntingtin toxicity, final LDH at 4 uM, stronger effect = lower value
Compound,aggregation ratio [1],signal change (36 h minus 0 h) (PubChem AID 1586),SMN1 luciferase ratio [2],SMN2 luciferase ratio [2],normalised LDH release [3]
CCCCC[C@H]1C(=O)O[C@H](C)[C@H](NC(=O)c2cccc(NC=O)c2O)C(=O)O[C@@H](C)[C@@H]1OC(=O)CC(C)C,1.04,-0.201,0.32,0.34,0.406
NCCc1cc(O)c(O)cc1O,1.04,0.194,0.86,0.83,0.925
CCCCCc1cc(O)c2c(c1)OC(C)(C)c1ccc(C)cc1-2,,0.385,0.85,0.79,
O=C(O)c1ccccc1-c1c2cc(Br)c(=O)cc-2oc2[c]([Hg])c(O)c(Br)cc12,0.814,-0.00595,0.95,0.99,0.59
O=C1C=C2C(=CCOC2O)O1 (centres undefined),,0.119,,,
CN1CC[C@]23c4c5ccc(O)c4O[C@H]2[C@H](O)C=CC3[C@H]1C5 (some centres undefined),,0.311,0.8,0.93,1.03
CC1[C@H](C)OC(=O)CC(O)CC(O)CC(O)CCC(O)C(O)C[C@]2(O)CC(O)C(C(=O)O)C(CC(OC3O[C@H](C)[C@@H](O)[C@H](N)[C@@H]3O)/C=C/C=C/C=C/C=C/CC/C=C/C=C/[C@H](C)[C@H]1O)O2 (some centres undefined),,-0.331,0.95,1.04,1.04
CCC1(c2ccc(N)cc2)CCC(=O)NC1=O (centres undefined),0.999,0.421,0.93,0.92,1.03
CNC1(c2ccccc2Cl)CCCCC1=O (centres undefined),1.05,0.192,0.91,1.06,0.958
C[C@@]1(C(=O)O)CC[C@]2(C)CC[C@]3(C)C4=CC=C5C=C(O)C(=O)C=C5[C@]4(C)CC[C@@]3(C)[C@@H]2C1,,0.0245,0.05,0.09,
CO[C@@H]1C[C@@H](C[C@H]2CC[C@H](C)[C@H]([C@@H](C)C(=O)O)O2)O[C@]2(O[C@](C)([C@H]3CC[C@@](C)(C4O[C@@H](C5O[C@@](O)(CO)[C@H](C)C[C@@H]5C)C[C@@H]4C)O3)C[C@H]2C)[C@@H]1C (some centres undefined),,-0.0153,0.41,0.54,
COC12CC[C@@]3(C[C@@H]1C(C)(O)C(C)(C)C)[C@H]1Cc4ccc(O)c5c4[C@@]3(CCN1CC1CC1)[C@H]2O5 (some centres undefined),,0.169,0.91,0.93,
NC(N)=NOCC[C@H](N)C(=O)O,,0.135,0.9,0.85,0.997
CN(C)[C@@H]1C(=O)C(C(N)=O)=C(O)[C@@]2(O)C(=O)C3=C(O)c4c(O)cccc4[C@@](C)(O)[C@H]3[C@H](O)[C@@H]12,0.982,0.129,0.89,0.95,
ClC1=C(Cl)C2(Cl)C3C4CC(C5OC45)C3C1(Cl)C2(Cl)Cl (centres undefined),0.99,0.0853,0.92,1.08,0.818
CC[C@H]1C(=O)OC[C@@H]1Cc1cccn1C,1,0.0609,0.99,0.86,0.957
CC[C@@H](CO)NC(=O)[C@@H]1C=C2c3cccc4[nH]cc(c34)C[C@H]2N(C)C1,,0.133,0.91,0.91,0.79
CCCCCc1cc(O)c2c(c1)OC(C)(C)C1CC=C(C)CC21 (centres undefined),,0.284,0.95,1.02,
CC[n+]1c(-c2ccccc2)c2cc(N)ccc2c2ccc(N)cc21,,0.0381,0.3,0.42,
C/C=C(/C)C(=O)O[C@H]1CC[C@@]2(C)[C@@H]3CC[C@H]4[C@]5(O)C[C@H](O)[C@@]6(O)[C@@H](CN7C[C@@H](C)CC[C@H]7[C@@]6(C)O)[C@]5(O)C[C@@]42O[C@]13O,,0.121,0.92,0.9,0.818
O=c1[nH]c2ccccc2n1C1CCN(CCCC(c2ccc(F)cc2)c2ccc(F)cc2)CC1,1.03,0.0898,0.92,0.92,
CC(=O)C1=C(O)C2C3c4c[nH]c5cccc(c45)CC3C(C)(C)N2C1=O (centres undefined),,0.0324,1.07,0.98,0.884
CC[N+]1(C)CCCC(OC(=O)C(O)(c2ccccc2)c2ccccc2)C1 (centres undefined),,0.0678,0.89,0.88,0.964

# Two entries from above, set out differently:
Compound	aggregation ratio [1]	signal change (36 h minus 0 h) (PubChem AID 1586)	SMN1 luciferase ratio [2]	SMN2 luciferase ratio [2]	normalised LDH release [3]
CC[C@H]1C(=O)OC[C@@H]1Cc1cccn1C	1	0.0609	0.99	0.86	0.957
CC(=O)C1=C(O)C2C3c4c[nH]c5cccc(c45)CC3C(C)(C)N2C1=O (centres undefined)		0.0324	1.07	0.98	0.884

# Further results.

Compound,aggregation ratio [1],signal change (36 h minus 0 h) (PubChem AID 1586),SMN1 luciferase ratio [2],SMN2 luciferase ratio [2],normalised LDH release [3]
Oc1cccc2cccnc12,,0.0959,0.52,0.53,
CCCCCc1cc(O)c2c(c1)OC(C)(C)C1CCC(C)=CC21 (centres undefined),,0.29,0.96,0.92,
CC(=O)Oc1ccc(Cl)c2cccnc12,,0.158,0.83,0.89,
O=c1c2ccccc2[se]n1-c1ccccc1,,0.142,1.06,0.91,
CN1CCc2cc3c(cc2[C@H]1[C@@H]1OC(=O)c2c1ccc1c2OCO1)OCO3,,0.0388,0.84,0.84,0.998
C=C[C@H]1CN2CC[C@H]1C[C@@H]2[C@H](O)c1ccnc2ccccc12,,0.0862,0.83,0.84,
O=C1CC[C@@]2(O)[C@H]3Cc4ccc(O)c5c4C2(CCN3CC2CC2)[C@H]1O5,,0.116,0.87,1.01,0.609
O=c1oc2ccccc2c(O)c1Cc1c(O)c2ccccc2oc1=O,,0.124,0.97,1.05,1.16
CNc1ccc2oc(C[C@@H]3OC4(CC[C@@H]3C)O[C@H](C(C)C(=O)c3ccc[nH]3)[C@H](C)C[C@H]4C)nc2c1C(=O)O (some centres undefined),0.897,0.0676,0.78,0.89,
CN1C(=O)CN=C(c2ccccc2)c2cc(Cl)ccc21,,0.241,0.76,0.96,0.967
C[C@@H]1CC[C@H]2[C@@H](C)C(=O)O[C@@H]3OC4(C)CC[C@@H]1[C@]32OO4,,0.0722,0.96,0.94,0.861
CC(C)=CCCC1(C)C=Cc2c(O)c3c(c(CC=C(C)C)c2O1)OC12C(=CC4CC1C(C)(C)OC2(C/C=C(/C)C(=O)O)C4=O)C3=O (centres undefined),,0.264,0.37,0.52,
C[C@@H]1C[C@@H]([C@H](O)CC2CC(=O)NC(=O)C2)C(=O)[C@@H](C)C1,,0.0209,0.28,0.42,
CC[C@@H]1C(=O)OC[C@@H]1Cc1cncn1C,,0.0284,0.88,0.77,0.988
COc1cc(CCN)cc(OC)c1OC,,0.337,0.87,0.91,1.1
CN1C(=O)CCS(=O)(=O)C1c1ccc(Cl)cc1 (centres undefined),,0.33,0.94,0.98,1.04
CNC(C)Cc1ccc2c(c1)OCO2 (centres undefined),,0.14,0.95,0.9,0.96
CC(C)N(CCC(C(N)=O)(c1ccccc1)c1ccccn1)C(C)C (centres undefined),,0.145,0.92,0.88,1.14
Clc1ccc(COC(Cn2ccnc2)c2ccc(Cl)cc2Cl)cc1 (centres undefined),,-0.0352,0.84,0.87,1.12
CN(C)[C@@H]1C(=O)C(C(N)=O)=C(O)[C@@]2(O)C(=O)C3=C(O)c4c(O)ccc(Cl)c4[C@@](C)(O)[C@H]3C[C@@H]12,,0.191,0.88,0.96,0.671
CCC(=O)O[C@H]1CCC2C3CCC4=CC(=O)CC[C@]4(C)C3CC[C@@]21C (some centres undefined),,0.0906,0.96,0.94,1.15
CC(C)(C)NCC(O)c1cc(Cl)c(N)c(Cl)c1 (centres undefined),,0.0924,0.9,0.84,0.842
C=CCc1ccc2c(c1)OCO2,,0.478,0.85,0.92,1.11

Compound,aggregation ratio [1],signal change (36 h minus 0 h) (PubChem AID 1586),SMN1 luciferase ratio [2],SMN2 luciferase ratio [2],normalised LDH release [3]
CC1=NCCc2c1[nH]c1cc(O)ccc21,,0.295,0.9,0.93,0.824
N#C/C(=C\c1cccc(O)c1)C(=O)O,,0.107,0.81,0.98,0.838
C=C[C@H]1CN2CC[C@H]1C[C@H]2[C@H](O)c1ccnc2ccccc12,,0.165,0.96,0.96,0.965
COc1ccc2c(c1)[C@]13CCCC[C@H]1[C@H](C2)N(C)CC3,,0.179,0.82,0.93,0.585
O=C1C=CC(=O)c2c(O)cccc21,,0.393,0.92,0.89,1.05
CC(=O)Nc1cc([As](=O)(O)O)ccc1O,,0.123,1.04,0.88,0.96
C=C1C2CC[C@H]3[C@]4(C)C[C@H](OC5OC(CO)C(OS(=O)(=O)O)C(OS(=O)(=O)O)C5OC(=O)CC(C)C)C[C@@H](C(=O)O)[C@H]4CC[C@]3(C2)[C@H]1O (some centres undefined),,0.065,0.85,0.8,0.815
N#CC(O[C@@H]1O[C@H](CO[C@@H]2O[C@H](CO)[C@@H](O)[C@H](O)[C@H]2O)[C@@H](O)[C@H](O)[C@H]1O)c1ccccc1 (some centres undefined),,0.051,0.9,0.97,0.896
CC(N)C(O)c1ccccc1 (centres undefined),,0.142,0.96,0.93,0.761
CCCC(C)C1(CC)C(=O)N=C(S)NC1=O (centres undefined),,0.381,0.82,0.89,0.915
Nc1ccncc1,,0.216,1,0.94,1.39
CN1C2CCC1C(C(=O)O)C(OC(=O)c1ccccc1)C2 (centres undefined),,0.219,0.89,0.95,0.968
C=CCN1CC[C@]23c4c5ccc(O)c4OC2C(=O)CC[C@@]3(O)[C@H]1C5 (some centres undefined),,0.114,0.9,0.91,1.03
CCOC(=O)C1C(OC(=O)c2ccccc2)CC2CCC1N2C (centres undefined),,0.378,1,0.94,0.816
CC(=O)OC1CN2CCC1CC2 (centres undefined),,0.219,0.91,1,0.97
c1ccc2nc(N3CCNCC3)ccc2c1,,0.205,0.9,0.94,1.49
CN1C2CC(OC(=O)[C@H](CO)c3ccccc3)C[C@H]1CC2O (some centres undefined),,0.136,0.88,0.94,0.981
C=C(C)[C@@H]1[C@H]2OC(=O)[C@@H]1[C@]1(O)C[C@H]3O[C@]34C(=O)O[C@H]2[C@]14C,,0.177,0.85,0.81,0.995
CC[C@@]1(C2O[C@@H](C3O[C@@](O)(CC)[C@H](C)C[C@@H]3C)C[C@@H]2C)CC[C@H]([C@]2(C)CCC3(C[C@H](O)[C@@H](C)[C@@H]([C@H](C)[C@@H](OC)[C@H](C)C(=O)O)O3)O2)O1 (some centres undefined),,0.203,0.7,0.71,0.811
C=C(C)[C@H]1Cc2c(ccc3c2O[C@@H]2COc4cc(OC)c(OC)cc4[C@@H]2C3=O)O1,,0.26,0.36,0.39,0.497
NCC(CC(=O)O)c1ccc(Cl)cc1 (centres undefined),,0.15,0.96,0.86,0.603
